Reference: publication PMC3907535
Results are given in words; binding and its absence hold for the method and conditions named. In cells and extracts the contact can be indirect. Binding calls can cover weak binding; strength is not graded here. Sequences can lack the tags named with a protein.

Experiments:
[1] = molecular target: T1, SPIN1:HA (rice (Oryza sativa)) (UniProt Q75GR5); assay: co-IP; RFP:RBS1 and SPIN1:HA co-expressed in N. benthamiana by agroinfiltration; anti-HA agarose, 4°C overnight; blots with anti-HA and anti-RFP
T1 sequence: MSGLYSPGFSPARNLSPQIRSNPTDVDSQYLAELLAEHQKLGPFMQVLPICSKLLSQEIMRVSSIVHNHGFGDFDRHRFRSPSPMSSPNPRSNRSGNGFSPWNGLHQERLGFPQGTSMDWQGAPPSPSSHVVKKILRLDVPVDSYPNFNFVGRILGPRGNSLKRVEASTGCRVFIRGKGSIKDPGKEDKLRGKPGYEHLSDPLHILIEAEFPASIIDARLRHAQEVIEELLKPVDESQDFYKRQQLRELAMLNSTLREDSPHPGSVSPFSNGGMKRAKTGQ

[2] = molecular target: T2, NYFP-SPIN1 (rice (Oryza sativa)) (UniProt Q75GR5); assay: split reporter; BiFC with NYFP and CYFP fusions in transfected rice protoplasts, fluorescence microscopy
T2 sequence: T1 sequence

binding [1] | binding [2] | Substance
binds | – | RFP:RBS1 (rice (Oryza sativa))
– | binds | CYFP-RBS1 (rice (Oryza sativa))
